Assay results as given in the supplement of paper PMC7661543.
Differences between knockout arms are mostly noise. Where a SMILES comes first, the peptide text is derived from it. The star is where a group is joined. Cbz = O=C(OCc1ccccc1)*

Test system: BT-20
Assay: relative cell number vs DMSO control (72 h) (% of DMSO); higher = less growth inhibition (more cells)
Procedure: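 QMAP-Seq: a pool of 5 breast cancer cell lines (ZR-75-1, SKBR3, HCC-38, MDA-MB-231, BT-20), each carrying 12 doxycycline-inducible Cas9 sgRNA perturbations (11 knockouts plus non-targeting sgNT), was treated with compounds for 72 h at four 10-fold doses (10 nM-10 uM or 1 nM-1 uM range). Barcodes were amplified and sequenced, and cell number was interpolated from 293T spike-in standard curves. The result is expressed as % of the median of DMSO wells. Two biological replicates.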

Nc1nc(OCc2cc(Br)cs2)c2[nH]cnc2n1 [Lomeguatrib]
Settings	relative cell number
sgRNA knockout: sgATF3, 10 nM	103
sgRNA knockout: sgATF3, 100 nM	108
sgRNA knockout: sgATF3, 1000 nM	88.2
sgRNA knockout: sgATF3, 10000 nM	78.7
sgRNA knockout: sgATF4, 10 nM	102
sgRNA knockout: sgATF4, 100 nM	125
sgRNA knockout: sgATF4, 1000 nM	92
sgRNA knockout: sgATF4, 10000 nM	84.7
sgRNA knockout: sgATF6, 10 nM	106.3
sgRNA knockout: sgATF6, 100 nM	109
sgRNA knockout: sgATF6, 1000 nM	97.5
sgRNA knockout: sgATF6, 10000 nM	84.4
sgRNA knockout: sgATG7, 10 nM	103
sgRNA knockout: sgATG7, 100 nM	115
sgRNA knockout: sgATG7, 1000 nM	97.1
sgRNA knockout: sgATG7, 10000 nM	85.5
sgRNA knockout: sgERN1, 10 nM	110
sgRNA knockout: sgERN1, 100 nM	104
sgRNA knockout: sgERN1, 1000 nM	114
sgRNA knockout: sgERN1, 10000 nM	93
sgRNA knockout: sgHSF1, 10 nM	96.2
sgRNA knockout: sgHSF1, 100 nM	109
sgRNA knockout: sgHSF1, 1000 nM	94.2
sgRNA knockout: sgHSF1, 10000 nM	91.4
sgRNA knockout: sgHSF2, 10 nM	97.1
sgRNA knockout: sgHSF2, 100 nM	113
sgRNA knockout: sgHSF2, 1000 nM	85.8
sgRNA knockout: sgHSF2, 10000 nM	103
sgRNA knockout: sgKEAP1, 10 nM	94.6
sgRNA knockout: sgKEAP1, 100 nM	88.1
sgRNA knockout: sgKEAP1, 1000 nM	93.3
sgRNA knockout: sgKEAP1, 10000 nM	75.2
sgRNA knockout: sgNFE2L2, 10 nM	101
sgRNA knockout: sgNFE2L2, 100 nM	121
sgRNA knockout: sgNFE2L2, 1000 nM	108
sgRNA knockout: sgNFE2L2, 10000 nM	90.2
sgRNA knockout: sgSLC35F2, 10 nM	101
sgRNA knockout: sgSLC35F2, 100 nM	117
sgRNA knockout: sgSLC35F2, 1000 nM	101
sgRNA knockout: sgSLC35F2, 10000 nM	91
sgRNA knockout: sgXBP1, 10 nM	103
sgRNA knockout: sgXBP1, 100 nM	110
sgRNA knockout: sgXBP1, 1000 nM	96.6
sgRNA knockout: sgXBP1, 10000 nM	81.32

CC[C@H](C)C(=O)O[C@H]1C[C@@H](C)C=C2C=C[C@H](C)[C@H](CC[C@@H]3C[C@@H](O)CC(=O)O3)[C@H]21 [Lovastatin]
Settings	relative cell number
sgRNA knockout: sgATF3, 10 nM	101
sgRNA knockout: sgATF3, 100 nM	82.8
sgRNA knockout: sgATF3, 1000 nM	89.2
sgRNA knockout: sgATF3, 10000 nM	63.3
sgRNA knockout: sgATF4, 10 nM	107
sgRNA knockout: sgATF4, 100 nM	96
sgRNA knockout: sgATF4, 1000 nM	100
sgRNA knockout: sgATF4, 10000 nM	80.6
sgRNA knockout: sgATF6, 10 nM	113
sgRNA knockout: sgATF6, 100 nM	70.5
sgRNA knockout: sgATF6, 1000 nM	89.6
sgRNA knockout: sgATF6, 10000 nM	61.2
sgRNA knockout: sgATG7, 10 nM	124
sgRNA knockout: sgATG7, 100 nM	85.2
sgRNA knockout: sgATG7, 1000 nM	101
sgRNA knockout: sgATG7, 10000 nM	66.6
sgRNA knockout: sgERN1, 10 nM	100
sgRNA knockout: sgERN1, 100 nM	93.3
sgRNA knockout: sgERN1, 1000 nM	96.2
sgRNA knockout: sgERN1, 10000 nM	85.3
sgRNA knockout: sgHSF1, 10 nM	105
sgRNA knockout: sgHSF1, 100 nM	86.1
sgRNA knockout: sgHSF1, 1000 nM	95.8
sgRNA knockout: sgHSF1, 10000 nM	78.5
sgRNA knockout: sgHSF2, 10 nM	114
sgRNA knockout: sgHSF2, 100 nM	81.4
sgRNA knockout: sgHSF2, 1000 nM	89.6
sgRNA knockout: sgHSF2, 10000 nM	71.7
sgRNA knockout: sgKEAP1, 10 nM	97.6
sgRNA knockout: sgKEAP1, 100 nM	85.6
sgRNA knockout: sgKEAP1, 1000 nM	98.1
sgRNA knockout: sgKEAP1, 10000 nM	79.2
sgRNA knockout: sgNFE2L2, 10 nM	94.3
sgRNA knockout: sgNFE2L2, 100 nM	94.9
sgRNA knockout: sgNFE2L2, 1000 nM	95.4
sgRNA knockout: sgNFE2L2, 10000 nM	65.4
sgRNA knockout: sgSLC35F2, 10 nM	103
sgRNA knockout: sgSLC35F2, 100 nM	97
sgRNA knockout: sgSLC35F2, 1000 nM	99
sgRNA knockout: sgSLC35F2, 10000 nM	102
sgRNA knockout: sgXBP1, 10 nM	109
sgRNA knockout: sgXBP1, 100 nM	84.1
sgRNA knockout: sgXBP1, 1000 nM	103
sgRNA knockout: sgXBP1, 10000 nM	79.6

CC(C)C[C@@H](C=O)NC(=O)[C@H](CC(C)C)NC(=O)[C@H](CC(C)C)NC(=O)OCc1ccccc1 [MG132] (Cbz-Leu-Leu-Leu-aldehyde)
Settings	relative cell number
sgRNA knockout: sgATF3, 10 nM	114
sgRNA knockout: sgATF3, 100 nM	109
sgRNA knockout: sgATF3, 1000 nM	26.5
sgRNA knockout: sgATF3, 10000 nM	15.4
sgRNA knockout: sgATF4, 10 nM	91.2
sgRNA knockout: sgATF4, 100 nM	101.4
sgRNA knockout: sgATF4, 1000 nM	31.3
sgRNA knockout: sgATF4, 10000 nM	18.4
sgRNA knockout: sgATF6, 10 nM	99.8
sgRNA knockout: sgATF6, 100 nM	99.9
sgRNA knockout: sgATF6, 1000 nM	27.6
sgRNA knockout: sgATF6, 10000 nM	17.4
sgRNA knockout: sgATG7, 10 nM	100
sgRNA knockout: sgATG7, 100 nM	96.1
sgRNA knockout: sgATG7, 1000 nM	31.9
sgRNA knockout: sgATG7, 10000 nM	18.5
sgRNA knockout: sgERN1, 10 nM	97
sgRNA knockout: sgERN1, 100 nM	92.6
sgRNA knockout: sgERN1, 1000 nM	31.2
sgRNA knockout: sgERN1, 10000 nM	19.36
sgRNA knockout: sgHSF1, 10 nM	85.8
sgRNA knockout: sgHSF1, 100 nM	99.5
sgRNA knockout: sgHSF1, 1000 nM	28.6
sgRNA knockout: sgHSF1, 10000 nM	21.2
sgRNA knockout: sgHSF2, 10 nM	94.5
sgRNA knockout: sgHSF2, 100 nM	100
sgRNA knockout: sgHSF2, 1000 nM	28.1
sgRNA knockout: sgHSF2, 10000 nM	20.1
sgRNA knockout: sgKEAP1, 10 nM	91.7
sgRNA knockout: sgKEAP1, 100 nM	98
sgRNA knockout: sgKEAP1, 1000 nM	33.206
sgRNA knockout: sgKEAP1, 10000 nM	17.2
sgRNA knockout: sgNFE2L2, 10 nM	108
sgRNA knockout: sgNFE2L2, 100 nM	91.1
sgRNA knockout: sgNFE2L2, 1000 nM	24.6
sgRNA knockout: sgNFE2L2, 10000 nM	21.36
sgRNA knockout: sgSLC35F2, 10 nM	103
sgRNA knockout: sgSLC35F2, 100 nM	110
sgRNA knockout: sgSLC35F2, 1000 nM	37.2
sgRNA knockout: sgSLC35F2, 10000 nM	18.8
sgRNA knockout: sgXBP1, 10 nM	110
sgRNA knockout: sgXBP1, 100 nM	95
sgRNA knockout: sgXBP1, 1000 nM	33.5
sgRNA knockout: sgXBP1, 10000 nM	16.9
